From patent US10323229B1, “Three-dimensional human stem cell-derived cortical spheroid model” (The Florida State University Research Foundation, Inc., priority 2015, dated 2019)
Some of these results come from one statement about several compounds together. At least one structure is not confirmed: it was looked up by name or label, or the drawing left a doubt.

Tested on: neuronal cells derived from hiPSK3 cells
Assay: MMP-2/-9 inhibitor effects: neurite density, MTT, cell counting
Format: cell-based, human
Conditions: Purmo group
Procedure: Derived neural cells, as described above, were replated onto Geltrex-coated 96-well plate and treated with MMP inhibitors: ARP 100 (MMP-2 inhibitor), MMP-9 inhibitor I, or SB-3CT (MMP-2 and MMP-9 inhibitor) (all from Santa Cruz) at 1 μM.
The cells were then characterized by MTT, reactive oxygen species (ROS), and poly caspase assays. For some experiments, cell numbers were counted using hemocytometer after trypsin/EDTA dissociation.
Briefly, the replated neural cells were incubated with 5 mg/mL 3-(4,5-Dimethylthiazol-2-yl)-2,5-diphenyltetrazolium bromide (MTT, Sigma) solution. The absorbance was measured at 500 nm using a microplate reader (Biorad, Richmond, Calif.). Image-iT™ Live Green Reactive Oxygen Species Detection kit (Molecular Probes) was used to detect the intracellular ROS. Briefly, neural cells were seeded at 1×10^5/mL in 96-well plates (100 μL). After 3 days, the cells were rinsed with Hank's balanced salt solution and incubated with 25 μM carboxy-H2DCFDA for 30 min at 37° C. The samples were washed and measured under a fluorescence microplate reader using 488 nm excitation wavelength and 530 nm for emission (Bio-Tek, FLx800, Winoosk, Vt.). […] The replated cells were incubated for one hour with the fluorescent inhibitor of caspases reagent and analyzed by a fluorescence microplate reader.

O=S(=O)(CC1CS1)c1ccc(Oc2ccccc2)cc1 (centres unmarked) [SB-3CT]
reduction of MTT activity (day 20-25, inhibitor 1 μM): 30-48% | decrease of cell numbers (day 45-50, inhibitor 1 μM): 16-24%
